Measurements published in US10525115B2 (Immatics Biotechnologies GmbH, priority 2014, dated 2020).

Test system: primary AML samples
Experiment: HLA class II ligandome analysis (LC-MS/MS) of primary AML samples
Parameters: species or system human
Settings: AML patients n=12; for Number of positive AMLs: HLA class II ligandome; for rep. frequency in AMLs: source protein level, HLA class II

B1: PBX2 pre-B-cell leukemia homeobox 2: HLA class II ligandome-derived tumor-associated antigen (LiTAA), source protein of the peptides listed under it (protein, UniProt P40425 1-430, looked up)
Pre-B-cell leukemia …: MDERLLGPPPPGGGRGGLGLVSGEPGGPGEPPGGGDPGGGSGGVPGGRGKQDIGDILQQIMTITDQSLDEAQAKKHALNCHRMKPALFSVLCEIKEKTGLSIRSSQEEEPVDPQLMRLDNMLLAEGVAGPEKGGGSAAAAAAAAASGGGVSPDNSIEHSDYRSKLAQIRHIYHSELEKYEQACNEFTTHVMNLLREQSRTRPVAPKEMERMVSIIHRKFSAIQMQLKQSTCEAVMILRSRFLDARRKRRNFSKQATEVLNEYFYSHLSNPYPSEEAKEELAKKCGITVSQVSNWFGNKRIRYKKNIGKFQEEANIYAVKTAVSVTQGGHSRTSSPTPPSSAGSGGSFNLSGSGDMFLGMPGLNGDSYSASQVESLRHSMGPGGYGDNLGGGQMYSPREMRANGSWQEAVTPSSVTSPTEGPGSVHSDTSN
B1 was tested, and the “Number of positive AMLs” value was 3 and the “rep. frequency in AMLs” value was 25.0%.

B2: LAIR1 leukocyte-associated immunoglobulin-like receptor 1: HLA class II ligandome-derived tumor-associated antigen (LiTAA), source protein of the peptides listed under it (protein, UniProt Q6GTX8 22-287, looked up)
Leukocyte-associated …: QEEDLPRPSISAEPGTVIPLGSHVTFVCRGPVGVQTFRLERDSRSTYNDTEDVSQASPSESEARFRIDSVREGNAGLYRCIYYKPPKWSEQSDYLELLVKESSGGPDSPDTEPGSSAGPTQRPSDNSHNEHAPASQGLKAEHLYILIGVSVVFLFCLLLLVLFCLHRQNQIKQGPPRSKDEEQKPQQRPDLAVDVLERTADKATVNGLPEKDRETDTSALAAGSSQEVTYAQLDHWALTQRTARAVSPQSTKPMAESITYAAVARH
For B2, the “Number of positive AMLs” value was 3 and the “rep. frequency in AMLs” value was 25.0%.

B3: ERGIC1 endoplasmic reticulum-golgi intermediate compartment (ERGIC) 1: HLA class II ligandome-derived tumor-associated antigen (LiTAA), source protein of the peptides listed under it (protein, UniProt Q969X5 1-290, looked up)
Endoplasmic reticulum-Golgi …: MPFDFRRFDIYRKVPKDLTQPTYTGAIISICCCLFILFLFLSELTGFITTEVVNELYVDDPDKDSGGKIDVSLNISLPNLHCELVGLDIQDEMGRHEVGHIDNSMKIPLNNGAGCRFEGQFSINKVPGNFHVSTHSATAQPQNPDMTHVIHKLSFGDTLQVQNIHGAFNALGGADRLTSNPLASHDYILKIVPTVYEDKSGKQRYSYQYTVANKEYVAYSHTGRIIPAIWFRYDLSPITVKYTERRQPLYRFITTICAIIGGTFTVAGILDSCIFTASEAWKKIQLGKMH
In the case of B3, the “Number of positive AMLs” value is reported as 3 and the “rep. frequency in AMLs” value is reported as 25.0%.

B4: HSP90B2P heat shock protein 90 kDa beta (Grp94), member 2, pseudogene: HLA class II ligandome-derived tumor-associated antigen (LiTAA), source protein of the peptides listed under it (protein, UniProt Q58FF3 1-399, looked up)
Putative endoplasmin-like …: MAETIQEVEDEYKAFCKSFSKESDDPVACIHFTAEGEVTFKSILFVPTFVPRGLFDEYGSKKSDYIKLYVRCVFITDDFRDTMPKNLNFVKGVVDSGGLSLNVSCETLQQHKLLKVIRKKLVHKTLDMIKKIADEKYNDTFWKEFGTNIKLGVIEDHSNRTCLAKLLRFQSSHHPADITSLHQDVERMKEKQDKICLMAGGYEVIYLTEPVVEYCIQALPEFDGKRFQNVAKEGVKFDDSEKTKESHEAVEKEFEPLPNWVKDKAIKDKIEKAMVSQCLTESLCALVASQYGWSGNMERIMKAQAYQTGKGISTNYHASRKKTFEINPRHPLIRDMLRRIKEDEDDKTVLDLAVVEEPDEEPEETAEDKEQDKDKEMDVGTDEEKQETAKESTAEKDEL
For B4, the “Number of positive AMLs” value was 3 and the “rep. frequency in AMLs” value was 25.0%.

B5: GALNT7 UDP-N-acetyl-alpha-D-galactosamine:polypeptide N-acetylgalactosaminyltransferase 7 (GalNAc-T7): HLA class II ligandome-derived tumor-associated antigen (LiTAA), source protein of the peptides … (protein, UniProt Q86SF2 1-657, looked up)
N-acetylgalactosaminyltransfer …: MRLKIGFILRSLLVVGSFLGLVVLWSSLTPRPDDPSPLSRMREDRDVNDPMPNRGGNGLAPGEDRFKPVVPWPHVEGVEVDLESIRRINKAKNEQEHHAGGDSQKDIMQRQYLTFKPQTFTYHDPVLRPGILGNFEPKEPEPPGVVGGPGEKAKPLVLGPEFKQAIQASIKEFGFNMVASDMISLDRSVNDLRQEECKYWHYDENLLTSSVVIVFHNEGWSTLMRTVHSVIKRTPRKYLAEIVLIDDFSNKEHLKEKLDEYIKLWNGLVKVFRNERREGLIQARSIGAQKAKLGQVLIYLDAHCEVAVNWYAPLVAPISKDRTICTVPLIDVINGNTYEIIPQGGGDEDGYARGAWDWSMLWKRVPLTPQEKRLRKTKTEPYRSPAMAGGLFAIEREFFFELGLYDPGLQIWGGENFEISYKIWQCGGKLLFVPCSRVGHIYRLEGWQGNPPPIYVGSSPTLKNYVRVVEVWWDEYKDYFYASRPESQALPYGDISELKKFREDHNCKSFKWFMEEIAYDITSHYPLPPKNVDWGEIRGFETAYCIDSMGKTNGGFVELGPCHRMGGNQLFRINEANQLMQYDQCLTKGADGSKVMITHCNLNEFKEWQYFKNLHRFTHIPSGKCLDRSEVLHQVFISNCDSSKTTQKWEMNNIHSV
In the case of B5, the “Number of positive AMLs” value is reported as 3 and the “rep. frequency in AMLs” value is reported as 25.0%.

B6: RBMX RNA binding motif protein, X-linked: HLA class II ligandome-derived tumor-associated antigen (LiTAA), source protein of the peptides listed under it (protein, UniProt P38159 1-391, looked up)
RNA-binding motif protein, X …: MVEADRPGKLFIGGLNTETNEKALEAVFGKYGRIVEVLLMKDRETNKSRGFAFVTFESPADAKDAARDMNGKSLDGKAIKVEQATKPSFESGRRGPPPPPRSRGPPRGLRGGRGGSGGTRGPPSRGGHMDDGGYSMNFNMSSSRGPLPVKRGPPPRSGGPPPKRSAPSGPVRSSSGMGGRAPVSRGRDSYGGPPRREPLPSRRDVYLSPRDDGYSTKDSYSSRDYPSSRDTRDYAPPPRDYTYRDYGHSSSRDDYPSRGYSDRDGYGRDRDYSDHPSGGSYRDSYESYGNSRSAPPTRGPPPSYGGSSRYDDYSSSRDGYGGSRDSYSSSRSDLYSSGRDRVGRQERGLPPSMERGYPPPRDSYSSSSRGAPRGGGRGGSRSDRGGGRSRY
For B6, the “Number of positive AMLs” value was 3 and the “rep. frequency in AMLs” value was 25.0%.

B7: ARRDC1 arrestin domain containing 1: HLA class II ligandome-derived tumor-associated antigen (LiTAA), source protein of the peptides listed under it (protein, UniProt Q8N5I2 1-433, looked up)
Arrestin domain-containing …: MGRVQLFEISLSHGRVVYSPGEPLAGTVRVRLGAPLPFRAIRVTCIGSCGVSNKANDTAWVVEEGYFNSSLSLADKGSLPAGEHSFPFQFLLPATAPTSFEGPFGKIVHQVRAAIHTPRFSKDHKCSLVFYILSPLNLNSIPDIEQPNVASATKKFSYKLVKTGSVVLTASTDLRGYVVGQALQLHADVENQSGKDTSPVVASLLQKVSYKAKRWIHDVRTIAEVEGAGVKAWRRAQWHEQILVPALPQSALPGCSLIHIDYYLQVSLKAPEATVTLPVFIGNIAVNHAPVSPRPGLGLPPGAPPLVVPSAPPQEEAEAEAAAGGPHFLDPVFLSTKSHSQRQPLLATLSSVPGAPEPCPQDGSPASHPLHPPLCISTGATVPYFAEGSGGPVPTTSTLILPPEYSSWGYPYEAPPSYEQSCGGVEPSLTPES
With B7 the “Number of positive AMLs” value was 3 and the “rep. frequency in AMLs” value was 25.0%.

B8: GANAB glucosidase, alpha; neutral AB: HLA class II ligandome-derived tumor-associated antigen (LiTAA), source protein of the peptides listed under it (protein, UniProt Q14697 29-944, looked up)
Neutral alpha-glucosidase AB: ITLAVDRSNFKTCEESSFCKRQRSIRPGLSPYRALLDSLQLGPDSLTVHLIHEVTKVLLVLELQGLQKNMTRFRIDELEPRRPRYRVPDVLVADPPIARLSVSGRDENSVELTMAEGPYKIILTARPFRLDLLEDRSLLLSVNARGLLEFEHQRAPRVSQGSKDPAEGDGAQPEETPRDGDKPEETQGKAEKDEPGAWEETFKTHSDSKPYGPMSVGLDFSLPGMEHVYGIPEHADNLRLKVTEGGEPYRLYNLDVFQYELYNPMALYGSVPVLLAHNPHRDLGIFWLNAAETWVDISSNTAGKTLFGKMMDYLQGSGETPQTDVRWMSETGIIDVFLLLGPSISDVFRQYASLTGTQALPPLFSLGYHQSRWNYRDEADVLEVDQGFDDHNLPCDVIWLDIEHADGKRYFTWDPSRFPQPRTMLERLASKRRKLVAIVDPHIKVDSGYRVHEELRNLGLYVKTRDGSDYEGWCWPGSAGYPDFTNPTMRAWWANMFSYDNYEGSAPNLFVWNDMNEPSVFNGPEVTMLKDAQHYGGWEHRDVHNIYGLYVHMATADGLRQRSGGMERPFVLARAFFAGSQRFGAVWTGDNTAEWDHLKISIPMCLSLGLVGLSFCGADVGGFFKNPEPELLVRWYQMGAYQPFFRAHAHLDTGRREPWLLPSQHNDIIRDALGQRYSLLPFWYTLLYQAHREGIPVMRPLWVQYPQDVTTFNIDDQYLLGDALLVHPVSDSGAHGVQVYLPGQGEVWYDIQSYQKHHGPQTLYLPVTLSSIPVFQRGGTIVPRWMRVRRSSECMKDDPITLFVALSPQGTAQGELFLDDGHTFNYQTRQEFLLRRFSFSGNTLVSSSADPEGHFETPIWIERVVIIGAGKPAAVVLQTKGSPESRLSFQHDPETSVLVLRKPGINVASDWSIHLR
B8 was tested, and the “Number of positive AMLs” value was 3 and the “rep. frequency in AMLs” value was 25.0%.

B9: C19orf10 chromosome 19 open reading frame 10: HLA class II ligandome-derived tumor-associated antigen (LiTAA), source protein of the peptides listed under it (protein, UniProt Q969H8 32-173, looked up)
Myeloid-derived growth factor: VSEPTTVAFDVRPGGVVHSFSHNVGPGDKYTCMFTYASQGGTNEQWQMSLGTSEDHQHFTCTIWRPQGKSYLYFTQFKAEVRGAEIEYAMAYSKAAFERESDVPLKTEEFEVTKTAVAHRPGAFKAELSKLVIVAKASRTEL
B9 was tested, and the “Number of positive AMLs” value was 5 and the “rep. frequency in AMLs” value was 41.7%.
